Some of the results follow.
Experiments:
Experiment in all cases: glycan array binding signal (z-score within array); higher = stronger binding
Conditions in all cases: glycan notation: IUPAC condensed, linker removed
[1] = target: Neu5Ac(a2-6)Gal(b1-3)GlcNAc(b1-3)[Gal(b1-4)GlcNAc(b1-6)]Gal(b1-4)Glc
Summary of the method: (§1)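 The binding signal is a Z-score computed within each array and averaged over linkers. Arrays of the same protein sequence at different concentrations or buffers were also averaged together. Data originate from 3228 arrays in the Consortium for Functional Glycomics database, kept only where the protein sequence was available.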

[2] = target: Neu5Ac(a2-6)Gal(b1-4)Glc
Summary of the method: as §1

[3] = target: Neu5Ac(a2-6)Gal(b1-4)GlcNAc
Summary of the method: as §1

[4] = target: Neu5Ac(a2-6)Gal(b1-4)GlcNAc(b1-2)Man
Summary of the method: as §1

[5] = target: Neu5Ac(a2-6)Gal(b1-4)GlcNAc(b1-2)Man(a1-3)Man(b1-4)GlcNAc(b1-4)GlcNAc
Summary of the method: as §1

[6] = target: Neu5Ac(a2-6)Gal(b1-4)GlcNAc(b1-2)Man(a1-3)[Gal(b1-4)GlcNAc(b1-2)Man(a1-6)]Man(b1-4)GlcNAc(b1-4)GlcNAc
Summary of the method: as §1

[7] = target: Neu5Ac(a2-6)Gal(b1-4)GlcNAc(b1-2)Man(a1-3)[GlcNAc(b1-2)Man(a1-6)]Man(b1-4)GlcNAc(b1-4)GlcNAc
Summary of the method: as §1

[8] = target: Neu5Ac(a2-6)Gal(b1-4)GlcNAc(b1-2)Man(a1-3)[GlcNAc(b1-4)][Neu5Ac(a2-6)Gal(b1-4)GlcNAc(b1-2)Man(a1-6)]Man(b1-4)GlcNAc(b1-4)GlcNAc
Summary of the method: as §1

[9] = target: Neu5Ac(a2-6)Gal(b1-4)GlcNAc(b1-2)Man(a1-3)[Man(a1-6)]Man(b1-4)GlcNAc(b1-4)GlcNAc
Summary of the method: as §1

[10] = target: Neu5Ac(a2-6)Gal(b1-4)GlcNAc(b1-2)Man(a1-3)[Neu5Ac(a2-3)Gal(b1-4)GlcNAc(b1-2)Man(a1-6)]Man(b1-4)GlcNAc(b1-4)GlcNAc
Summary of the method: as §1

[11] = target: Neu5Ac(a2-6)Gal(b1-4)GlcNAc(b1-2)Man(a1-3)[Neu5Ac(a2-6)Gal(b1-4)GlcNAc(b1-2)Man(a1-6)]Man(b1-4)GlcNAc(b1-4)GlcNAc
Summary of the method: as §1

[12] = target: Neu5Ac(a2-6)Gal(b1-4)GlcNAc(b1-2)Man(a1-3)[Neu5Ac(a2-6)Gal(b1-4)GlcNAc(b1-2)Man(a1-6)]Man(b1-4)GlcNAc(b1-4)[Fuc(a1-6)]GlcNAc
Summary of the method: as §1

[13] = target: Neu5Ac(a2-6)Gal(b1-4)GlcNAc(b1-2)Man(a1-6)Man(b1-4)GlcNAc(b1-4)GlcNAc
Summary of the method: as §1

[14] = target: Neu5Ac(a2-6)Gal(b1-4)GlcNAc(b1-2)Man(a1-6)[Gal(b1-4)GlcNAc(b1-2)Man(a1-3)]Man(b1-4)GlcNAc(b1-4)GlcNAc
Summary of the method: as §1

[15] = target: Neu5Ac(a2-6)Gal(b1-4)GlcNAc(b1-2)Man(a1-6)[GlcNAc(b1-2)Man(a1-3)]Man(b1-4)GlcNAc(b1-4)GlcNAc
Summary of the method: as §1

[16] = target: Neu5Ac(a2-6)Gal(b1-4)GlcNAc(b1-2)Man(a1-6)[Man(a1-3)]Man(b1-4)GlcNAc(b1-4)GlcNAc
Summary of the method: as §1

[17] = target: Neu5Ac(a2-6)Gal(b1-4)GlcNAc(b1-2)[Neu5Ac(a2-6)Gal(b1-4)GlcNAc(b1-4)]Man(a1-3)[GlcNAc(b1-4)][Neu5Ac(a2-6)Gal(b1-4)GlcNAc(b1-2)[Neu5Ac(a2-6)Gal(b1-4)GlcNAc(b1-6)]Man(a1-6)]Man(b1-4)GlcNAc(b1-4)GlcNAc
Summary of the method: as §1

[18] = target: Neu5Ac(a2-6)Gal(b1-4)GlcNAc(b1-2)[Neu5Ac(a2-6)Gal(b1-4)GlcNAc(b1-4)]Man(a1-3)[GlcNAc(b1-4)][Neu5Ac(a2-6)Gal(b1-4)GlcNAc(b1-4)Man(a1-6)]Man(b1-4)GlcNAc(b1-4)GlcNAc
Summary of the method: as §1

[19] = target: Neu5Ac(a2-6)Gal(b1-4)GlcNAc(b1-2)[Neu5Ac(a2-6)Gal(b1-4)GlcNAc(b1-6)]Man(a1-6)[Neu5Ac(a2-6)Gal(b1-4)GlcNAc(b1-2)Man(a1-3)][GlcNAc(b1-4)]Man(b1-4)GlcNAc(b1-4)GlcNAc
Summary of the method: as §1

[20] = target: Neu5Ac(a2-6)Gal(b1-4)GlcNAc(b1-3)Gal(b1-3)GlcNAc
Summary of the method: as §1

[21] = target: Neu5Ac(a2-6)Gal(b1-4)GlcNAc(b1-3)Gal(b1-4)GlcNAc
Summary of the method: as §1

[22] = target: Neu5Ac(a2-6)Gal(b1-4)GlcNAc(b1-3)Gal(b1-4)GlcNAc(b1-2)Man(a1-3)[Neu5Ac(a2-6)Gal(b1-4)GlcNAc(b1-3)Gal(b1-4)GlcNAc(b1-2)Man(a1-6)]GalNAc
Summary of the method: as §1

[23] = target: Neu5Ac(a2-6)Gal(b1-4)GlcNAc(b1-3)Gal(b1-4)GlcNAc(b1-3)Gal(b1-4)GlcNAc
Summary of the method: as §1

[24] = target: Neu5Ac(a2-6)Gal(b1-4)GlcNAc(b1-3)Gal(b1-4)GlcNAc(b1-3)Gal(b1-4)GlcNAc(b1-2)Man(a1-3)[Neu5Ac(a2-6)Gal(b1-4)GlcNAc(b1-3)Gal(b1-4)GlcNAc(b1-3)Gal(b1-4)GlcNAc(b1-2)Man(a1-6)]GalNAc
Summary of the method: as §1

[25] = target: Neu5Ac(a2-6)Gal(b1-4)GlcNAc(b1-3)Gal(b1-4)GlcNAc(b1-3)GalNAc
Summary of the method: as §1

[26] = target: Neu5Ac(a2-6)Gal(b1-4)GlcNAc(b1-3)Gal(b1-4)GlcNAc(b1-3)[Neu5Ac(a2-6)Gal(b1-4)GlcNAc(b1-3)Gal(b1-4)GlcNAc(b1-6)]GalNAc
Summary of the method: as §1

[27] = target: Neu5Ac(a2-6)Gal(b1-4)GlcNAc(b1-3)Gal(b1-4)GlcNAc(b1-6)[Gal(b1-3)]GalNAc
Summary of the method: as §1

[28] = target: Neu5Ac(a2-6)Gal(b1-4)GlcNAc(b1-3)Gal(b1-4)[Fuc(a1-3)]GlcNAc(b1-3)Gal(b1-4)[Fuc(a1-3)]GlcNAc
Summary of the method: as §1

[29] = target: Neu5Ac(a2-6)Gal(b1-4)GlcNAc(b1-3)GalNAc
Summary of the method: as §1

[30] = target: Neu5Ac(a2-6)Gal(b1-4)GlcNAc(b1-3)[Neu5Ac(a2-6)Gal(b1-4)GlcNAc(b1-6)]GalNAc
Summary of the method: as §1

[31] = target: Neu5Ac(a2-6)Gal(b1-4)GlcNAc(b1-6)GalNAc
Summary of the method: as §1

[32] = target: Neu5Ac(a2-6)Gal(b1-4)GlcNAc(b1-6)[Gal(b1-3)GlcNAc(b1-3)]Gal(b1-4)Glc
Summary of the method: as §1

[33] = target: Neu5Ac(a2-6)Gal(b1-4)GlcNAc(b1-6)[Gal(b1-3)]GalNAc
Summary of the method: as §1

[34] = target: Neu5Ac(a2-6)Gal(b1-4)GlcNAc6S
Summary of the method: as §1

[35] = target: Neu5Ac(a2-6)GalNAc
Summary of the method: as §1

[36] = target: Neu5Ac(a2-6)GalNAc(b1-4)GlcNAc
Summary of the method: as §1

[37] = target: Neu5Ac(a2-6)GalNAc(b1-4)GlcNAc6S
Summary of the method: as §1

[38] = target: Neu5Ac(a2-6)GlcNAc(b1-4)GlcNAc
Summary of the method: as §1

B1: Clec39 (Caenorhabditis elegans) (protein)
chain: MTSFYDNSSSSSKPVPLKTSRAQKIQILIFDNWKLILYGAISTLILVLAIMFSTLFFALPAANCDENSEPTKYYTTNAEITTTITTTNQKTTSTASSHLTTISSSATQIYSESSSSSTSQSTFTQSPPEISTTTIAPSDFSCQHGFTLVNNKCWKLVTSNQARPDADKICNGYGGATLFSIKSEQDNRAMIHFVKGQDIDFLWSGLLCSAGEPISCIWDIENGSTANYSNFADGFPNIVYGNCVYFITSGDEAGQWGNEQCGQVMNFVCELPATFQGKDGCKNNYEKSCYLRFDLNLTVPQAQNFCLEKCANLVSIHSANEVRFIMTIYDFIGEILIGALAPAQDFIYWLDGTPANYNNLKFFYNSTCVHMTVAPGMQNVGKWFTRFCTETGKFLCKRSIKNSCT
glycan array binding signal (z-score) [1]: -0.501 | glycan array binding signal (z-score) [2]: -1.37 | glycan array binding signal (z-score) [3]: -1.22 | glycan array binding signal (z-score) [4]: -0.28 | glycan array binding signal (z-score) [5]: 0.606 | glycan array binding signal (z-score) [6]: 0.815 | glycan array binding signal (z-score) [7]: 0.613 | glycan array binding signal (z-score) [8]: -0.538 | glycan array binding signal (z-score) [9]: 1.07 | glycan array binding signal (z-score) [10]: -0.493 | glycan array binding signal (z-score) [11]: -0.628 | glycan array binding signal (z-score) [12]: 0.847 | glycan array binding signal (z-score) [13]: 0.204 | glycan array binding signal (z-score) [14]: -1.02 | glycan array binding signal (z-score) [15]: 0.362 | glycan array binding signal (z-score) [16]: 0.487 | glycan array binding signal (z-score) [17]: -0.876 | glycan array binding signal (z-score) [18]: 0.149 | glycan array binding signal (z-score) [19]: -0.547 | glycan array binding signal (z-score) [20]: -0.794 | glycan array binding signal (z-score) [21]: -1.31 | glycan array binding signal (z-score) [22]: 0.435 | glycan array binding signal (z-score) [23]: -0.913 | glycan array binding signal (z-score) [24]: -0.432 | glycan array binding signal (z-score) [25]: -2.01 | glycan array binding signal (z-score) [26]: -0.058 | glycan array binding signal (z-score) [27]: 1.14 | glycan array binding signal (z-score) [28]: -0.95 | glycan array binding signal (z-score) [29]: -0.868 | glycan array binding signal (z-score) [30]: -0.29 | glycan array binding signal (z-score) [31]: -0.055 | glycan array binding signal (z-score) [32]: 0.004 | glycan array binding signal (z-score) [33]: 0.359 | glycan array binding signal (z-score) [34]: -0.23 | glycan array binding signal (z-score) [35]: -0.654 | glycan array binding signal (z-score) [36]: -0.184 | glycan array binding signal (z-score) [37]: -0.11 | glycan array binding signal (z-score) [38]: 0.106

From the supplement of paper PMC8728848
